Source: article doi:10.1101/2021.01.13.426390
These are yes or no findings as the source states them, for the method shown. Binding seen in cells or lysates may run through a third protein. Binding calls can cover weak binding; strength is not graded here.

The chains behind the UniProt entries cited, without tags or fusion partners. Where a name states a change or a piece, a line headed by the entry shows the natural chain unless it says otherwise.
UniProt O14763: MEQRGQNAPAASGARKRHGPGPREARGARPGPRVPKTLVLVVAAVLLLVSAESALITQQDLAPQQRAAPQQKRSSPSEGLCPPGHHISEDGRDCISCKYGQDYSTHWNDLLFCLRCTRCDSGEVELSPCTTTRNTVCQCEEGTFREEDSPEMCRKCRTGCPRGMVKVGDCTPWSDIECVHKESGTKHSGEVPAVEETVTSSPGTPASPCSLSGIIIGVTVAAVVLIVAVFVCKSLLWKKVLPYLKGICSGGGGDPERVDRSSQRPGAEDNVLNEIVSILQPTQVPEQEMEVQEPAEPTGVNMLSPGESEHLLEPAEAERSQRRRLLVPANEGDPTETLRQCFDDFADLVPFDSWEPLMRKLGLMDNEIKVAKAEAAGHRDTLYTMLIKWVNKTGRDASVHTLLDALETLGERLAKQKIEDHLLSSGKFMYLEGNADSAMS

Biological target: T1, ERp44 (human (endogenous in T47D, BT474, MDA-MB-468)) (UniProt Q9BS26)
T1 sequence: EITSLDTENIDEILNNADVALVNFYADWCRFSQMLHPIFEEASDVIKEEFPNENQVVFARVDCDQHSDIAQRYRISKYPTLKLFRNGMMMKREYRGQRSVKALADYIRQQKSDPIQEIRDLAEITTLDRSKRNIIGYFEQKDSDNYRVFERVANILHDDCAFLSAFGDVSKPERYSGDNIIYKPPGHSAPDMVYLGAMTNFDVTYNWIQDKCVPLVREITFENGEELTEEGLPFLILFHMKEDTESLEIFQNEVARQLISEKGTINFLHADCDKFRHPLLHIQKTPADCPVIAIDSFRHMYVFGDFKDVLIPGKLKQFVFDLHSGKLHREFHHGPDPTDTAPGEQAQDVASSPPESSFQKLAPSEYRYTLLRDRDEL
Assay: co-IP

DR5[Δ81-178] (from UniProt O14763) (receptor)
binding: binds weakly
